Results as given in patent US8389575B2, “Control of enzymatic peracid generation” (E.I. du Pont de Nemours and Company, priority 2008, dated 2013).

Assays:
[1] = Peracetic acid production by Thermotoga maritima MSB8 perhydrolase, control by bicarbonate buffer concentration; type: biochemical; details: 100 mM triacetin
Method: A cell extract of a transformant expressing perhydrolase from Thermotoga maritima MSB8 (KLP18/pSW207) was prepared by passing a suspension of cell paste (20 wt % wet cell weight) in 0.05 M potassium phosphate buffer (pH 7.0) containing dithiothreitol (1 mM) twice through a French press having a working pressure of 16,000 psi (˜110 MPa). The crude extract was then centrifuged at 20,000×g to remove cellular debris, producing a clarified cell extract that was assayed for total soluble protein (Bicinchoninic Acid Kit for Protein Determination, Sigma Aldrich catalog #BCA1-KT). The clarified extract was heated for 20 min at 75° C., followed immediately by cooling in an ice/water bath. The resulting mixture was centrifuged to remove precipitated protein, and the supernatant collected and assayed for total soluble protein as before. […] The supernatant was frozen in dry ice and stored at −80° C.
Reactions (2 mL total volume) containing triacetin, hydrogen peroxide and heat-treated, centrifuged cell extract supernatant (prepared as described above) were run at 25° C. using sodium bicarbonate buffer concentrations listed in Tables 9 and 10. A control reaction for each reaction condition was run to determine the concentration of peracetic acid produced by chemical perhydrolysis of triacetin by hydrogen peroxide in the absence of added extract protein. Determination of the concentration of peracetic acid in the reaction mixtures was performed according to the method described by Karst et al., supra. The peracetic acid concentrations produced in 1 min, 5 min and 30 min using either 250 mM or 100 mM hydrogen peroxide are listed in Table 9 and Table 10.

[2] = Peracetic acid production and reaction pH over time, Thermotoga maritima MSB8 perhydrolase, selection of buffer, reactant and perhydrolase concentrations; type: biochemical
Method: Reactions (10 mL total volume) containing triacetin (100 mM), hydrogen peroxide (100 mM or 250 mM) and heat-treated, centrifuged cell extract supernatant (35 to 100 μg total heat-treated extract protein/mL, prepared as described in Example 13) prepared from an E. coli transformant expressing perhydrolase from Thermotoga maritima MSB8 (KLP18/pSW207) in sodium citrate (50 mM, pH 6.5) buffer, or in sodium bicarbonate buffer (1 mM to 5 mM, initial pH as indicated in Table 12), or in water without added buffer were run at 25° C. A control reaction for each reaction condition was run to determine the concentration of peracetic acid produced by chemical perhydrolysis of triacetin by hydrogen peroxide in the absence of added extract protein. Determination of the concentration of peracetic acid in the reaction mixtures was performed according to the method described by Karst et al., supra. The peracetic acid concentration produced at predetermined reaction times is listed in Table 11, and the corresponding reaction pH at each reaction time is listed in Table 12.

[3] = bicarbonate, 1 mM, H2O2 100 mM, total protein 75 μg/mL, initial pH 6.0
[4] = bicarbonate, 1 mM, H2O2 100 mM, total protein 100 μg/mL, initial pH 6.0
[5] = bicarbonate, 1 mM, H2O2 250 mM, total protein 35 μg/mL, initial pH 6.0
[6] = bicarbonate, 1 mM, H2O2 250 mM, total protein 50 μg/mL, initial pH 6.0
[7] = bicarbonate, 2.5 mM, H2O2 100 mM, total protein 50 μg/mL, initial pH 6.5
[8] = bicarbonate, 5 mM, H2O2 100 mM, total protein 50 μg/mL, initial pH 6.5
[9] = citrate, 50 mM, H2O2 100 mM, total protein 50 μg/mL, initial pH 6.5
[10] = no added buffer, H2O2 250 mM, total protein 75 μg/mL, initial pH 5.0
[11] = no added buffer, H2O2 250 mM, total protein 100 μg/mL, initial pH 5.0

B1: Thermotoga maritima MSB8 perhydrolase: acetyl xylan esterase with perhydrolase activity from Thermotoga maritima MSB8 (SEQ ID NO: 16), cell extract of E. coli KLP18/pSW207 (protein, listed as Thermotoga maritima)
chain: MAFFDLPLEELKKYRPERYEEKDFDEFWEETLAESEKFPLDPVFERMESHLKTVEAYDVTFSGYRGQRIKGWLLVPKLEEEKLPCVVQYIGYNGGRGFPHDWLFWPSMGYICFVMDTRGQGSGWLKGDTPDYPEGPVDPQYPGFMTRGILDPRTYYYRRVFTDAVRAVEAAASFPQVDQERIVIAGGSQGGGIALAVSALSKKAKALLCDVPFLCHFRRAVQLVDTHPYAEITNFLKTHRDKEEIVFRTLSYFDGVNFAARAKIPALFSVGLMDNICPPSTVFAAYNYYAGPKEIRIYPYNNHEGGGSFQAVEQVKFLKKLFEKG
pH, 1 min ([1]; NaHCO3 0 mM, initial pH 5.0, 1 min, 100 mM H2O2, 50 μg/mL heated extract total protein): 5.0 | pH, 1 min ([1]; NaHCO3 0 mM, initial pH 5.0, 1 min, 250 mM H2O2, 50 μg/mL heated extract total protein): 5.0 | pH, 5 min ([1]; NaHCO3 0 mM, initial pH 5.0, 5 min, 100 mM H2O2, 50 μg/mL heated extract total protein): 5.0 | pH, 5 min ([1]; NaHCO3 0 mM, initial pH 5.0, 5 min, 250 mM H2O2, 50 μg/mL heated extract total protein): 5.0 | pH, 30 min ([1]; NaHCO3 0 mM, initial pH 5.0, 30 min, 100 mM H2O2, 50 μg/mL heated extract total protein): 5.0 | pH, 30 min ([1]; NaHCO3 0 mM, initial pH 5.0, 30 min, 250 mM H2O2, 50 μg/mL heated extract total protein): 5.0 | pH, 1 min ([1]; NaHCO3 1.0 mM, initial pH 6.0, 1 min, 100 mM H2O2, 50 μg/mL heated extract total protein): 5.0 | pH, 1 min ([1]; NaHCO3 1.0 mM, initial pH 6.0, 1 min, 250 mM H2O2, 50 μg/mL heated extract total protein): 5.0 | pH, 5 min ([1]; NaHCO3 1.0 mM, initial pH 6.0, 5 min, 100 mM H2O2, 50 μg/mL heated extract total protein): 5.0 | pH, 5 min ([1]; NaHCO3 1.0 mM, initial pH 6.0, 5 min, 250 mM H2O2, 50 μg/mL heated extract total protein): 5.0 | pH, 30 min ([1]; NaHCO3 1.0 mM, initial pH 6.0, 30 min, 100 mM H2O2, 50 μg/mL heated extract total protein): 5.0 | pH, 30 min ([1]; NaHCO3 1.0 mM, initial pH 6.0, 30 min, 250 mM H2O2, 50 μg/mL heated extract total protein): 5.0 | pH, 1 min ([1]; NaHCO3 2.5 mM, initial pH 6.5, 1 min, 100 mM H2O2, 50 μg/mL heated extract total protein): 5.7 | pH, 1 min ([1]; NaHCO3 2.5 mM, initial pH 6.5, 1 min, 250 mM H2O2, 50 μg/mL heated extract total protein): 5.5 | pH, 5 min ([1]; NaHCO3 2.5 mM, initial pH 6.5, 5 min, 100 mM H2O2, 50 μg/mL heated extract total protein): 5.3 | pH, 5 min ([1]; NaHCO3 2.5 mM, initial pH 6.5, 5 min, 250 mM H2O2, 50 μg/mL heated extract total protein): 5.3 | pH, 30 min ([1]; NaHCO3 2.5 mM, initial pH 6.5, 30 min, 100 mM H2O2, 50 μg/mL heated extract total protein): 5.0 | pH, 30 min ([1]; NaHCO3 2.5 mM, initial pH 6.5, 30 min, 250 mM H2O2, 50 μg/mL heated extract total protein): 5.0 | pH, 1 min ([1]; NaHCO3 5.0 mM, initial pH 6.5, 1 min, 100 mM H2O2, 50 μg/mL heated extract total protein): 6.0 | pH, 1 min ([1]; NaHCO3 5.0 mM, initial pH 6.5, 1 min, 250 mM H2O2, 50 μg/mL heated extract total protein): 6.0 | pH, 5 min ([1]; NaHCO3 5.0 mM, initial pH 6.5, 5 min, 100 mM H2O2, 50 μg/mL heated extract total protein): 5.7 | pH, 5 min ([1]; NaHCO3 5.0 mM, initial pH 6.5, 5 min, 250 mM H2O2, 50 μg/mL heated extract total protein): 5.7 | pH, 30 min ([1]; NaHCO3 5.0 mM, initial pH 6.5, 30 min, 100 mM H2O2, 50 μg/mL heated extract total protein): 5.0 | pH, 30 min ([1]; NaHCO3 5.0 mM, initial pH 6.5, 30 min, 250 mM H2O2, 50 μg/mL heated extract total protein): 5.0 | pH, 1 min ([1]; NaHCO3 10 mM, initial pH 7.0, 1 min, 250 mM H2O2, 50 μg/mL heated extract total protein): 6.3 | pH, 5 min ([1]; NaHCO3 10 mM, initial pH 7.0, 5 min, 250 mM H2O2, 50 μg/mL heated extract total protein): 5.5 | pH, 30 min ([1]; NaHCO3 10 mM, initial pH 7.0, 30 min, 250 mM H2O2, 50 μg/mL heated extract total protein): 5.0 | pH, 1 min ([1]; NaHCO3 10 mM, initial pH 8.1, 1 min, 100 mM H2O2, 50 μg/mL heated extract total protein): 6.5 | pH, 5 min ([1]; NaHCO3 10 mM, initial pH 8.1, 5 min, 100 mM H2O2, 50 μg/mL heated extract total protein): 6.0 | pH, 30 min ([1]; NaHCO3 10 mM, initial pH 8.1, 30 min, 100 mM H2O2, 50 μg/mL heated extract total protein): 5.3 | pH, 1 min ([1]; NaHCO3 25 mM, initial pH 8.1, 1 min, 100 mM H2O2, 50 μg/mL heated extract total protein): 7.5 | pH, 1 min ([1]; NaHCO3 25 mM, initial pH 8.1, 1 min, 250 mM H2O2, 50 μg/mL heated extract total protein): 7.0 | pH, 5 min ([1]; NaHCO3 25 mM, initial pH 8.1, 5 min, 100 mM H2O2, 50 μg/mL heated extract total protein): 6.8 | pH, 5 min ([1]; NaHCO3 25 mM, initial pH 8.1, 5 min, 250 mM H2O2, 50 μg/mL heated extract total protein): 6.5 | pH, 30 min ([1]; NaHCO3 25 mM, initial pH 8.1, 30 min, 100 mM H2O2, 50 μg/mL heated extract total protein): 6.0 | pH, 30 min ([1]; NaHCO3 25 mM, initial pH 8.1, 30 min, 250 mM H2O2, 50 μg/mL heated extract total protein): 6.0 | pH, 1 min [2, 3]: 5.0 | pH, 5 min [2, 3]: 5.0 | pH, 30 min [2, 3]: 5.0 | pH, 2 h [2, 3]: 5.0 | pH, 18 h [2, 3]: 4.5 | pH, 1 min [2, 4]: 5.0 | pH, 5 min [2, 4]: 5.0 | pH, 30 min [2, 4]: 5.0 | pH, 2 h [2, 4]: 5.0 | pH, 18 h [2, 4]: 4.5 | pH, 1 min [2, 5]: 5.5 | pH, 5 min [2, 5]: 5.0 | pH, 30 min [2, 5]: 5.0 | pH, 2 h [2, 5]: 5.0 | pH, 18 h [2, 5]: 5.0 | pH, 1 min [2, 6]: 5.0 | pH, 5 min [2, 6]: 5.0 | pH, 30 min [2, 6]: 5.0 | pH, 2 h [2, 6]: 5.0 | pH, 18 h [2, 6]: 5.0 | pH, 1 min [2, 7]: 5.7 | pH, 5 min [2, 7]: 5.0 | pH, 30 min [2, 7]: 5.0 | pH, 2 h [2, 7]: 5.0 | pH, 18 h [2, 7]: 5.0 | pH, 1 min [2, 8]: 6.0 | pH, 5 min [2, 8]: 5.5 | pH, 30 min [2, 8]: 5.0 | pH, 2 h [2, 8]: 5.0 | pH, 18 h [2, 8]: 5.0 | pH, 1 min [2, 9]: 6.5 | pH, 5 min [2, 9]: 6.5 | pH, 30 min [2, 9]: 6.2 | pH, 2 h [2, 9]: 6.0 | pH, 18 h [2, 9]: 6.0 | pH, 1 min [2, 10]: 5.0 | pH, 5 min [2, 10]: 5.0 | pH, 30 min [2, 10]: 5.0 | pH, 2 h [2, 10]: 5.0 | pH, 18 h [2, 10]: 4.5 | pH, 1 min [2, 11]: 5.0 | pH, 5 min [2, 11]: 5.0 | pH, 30 min [2, 11]: 5.0 | pH, 2 h [2, 11]: 5.0 | pH, 18 h [2, 11]: 4.5
